PubChem BioAssay AID652259 – Drosophila RNAi Screening Center, 2013
Purpose: 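Identify new Wingless signalling regulators in fly cells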 (primary screen). System: Drosophila clone 8 imaginal disc epithelial cells. Knock-down reagent: long dsRNA against Drosophila genes. Challenge: pathway stimulated by co-transfected Wingless expression plasmid. Read-out: 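Firefly luciferase from a tcf-site Wingless reporter, measured alongside co-transfected Renilla luciferase that tracks transfection; pathway stimulated by a Wingless plasmid; the firefly-to-Renilla ratio is not deposited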. Direction: firefly reporter light: higher = more Wg reporter light, before normalisation; Renilla control light: higher = more transfected or surviving cells. Call rule: 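Strong candidates differ from their plate mean by at least two out of four per-plate statistical tests; weak candidates meet just one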. Meaning of the calls: active = candidate regulator (raises or lowers reporter); inactive = not a candidate.
In all, the deposit lists about 22,000 reagents; below is a random part of those that have a named target and a result. In the full data, 233 (1.1%) were called active. 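Light values are raw, unnormalised plate reads; the ratio scores behind the reporter calls were not deposited.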 A number with no mark means an inactive call. Names joined by + are all predicted targets of the reagent. Not stated in the record: the amount of reagent, the time to read-out, the dose of the treatment.

no.	gene	DRSC id	reporter change call, replicate 1	firefly reporter light, replicate 1	firefly reporter light, replicate 2	Renilla control light, replicate 1	Renilla control light, replicate 2
1	Alms1b + Alms1a	DRSC18559		3058	6480	1528	1818
2	slif	DRSC11635		10300		4487	
3	CG6294 + CG6299 + CG15642	DRSC19981		23676		10051	
4	Cip4	DRSC08091		4248		1916	
5	Cip4	DRSC08469		3864		1894	
6	Cip4	DRSC21740		7.38e5	7.84e5	3.41e5	3.29e5
7	CG30377	DRSC06477		12258		2325	
8	CG30377	DRSC06799		3049	7328	564	1013
9	CG7518	DRSC16253		5451		2548	
10	Pp1-Y2	DRSC21608		5.76e5	5.11e5	1.98e5	1.49e5
11	CG14282	DRSC14763		16556		3828	
12	CR43096 + CG43060	DRSC12654		5015		2017	
13	CG12054	DRSC14467	Wg reporter activity raised (active)	2849	4813	177	448
14	Oda	DRSC07626		4705		1188	
15	ocm	DRSC04360		5304		1632	
16	Idgf3	DRSC03351		5052		2156	
17	D1	DRSC16638		7324		2435	
18	c-cup	DRSC00458		2858	12253	1117	3569
19	CG8560	DRSC10994		6568		2488	
20	CG18449	DRSC06754		1851	10208	667	2709
21	ND-MNLL	DRSC18159		24886		10121	
22	Osi3	DRSC12175		14947		3473	
23	Rap1	DRSC08686		11611		3780	
24	CG43254	DRSC12638		4592		1681	
25	RASSF8	DRSC15707		2362	8811	886	2912
26	CG14207	DRSC19562		3285	9171	1402	2630
27	CG14207	DRSC19563		19494		12042	
28	Cpr	DRSC03293		8536		4135	
29	b	DRSC03487		3629	6848	1467	3883
30	CG16710	DRSC15136		15744		11777	
31	CG7544	DRSC07023		5208		1539	
32	Brd	DRSC09685		10228		2753	
33	CG18808	DRSC08539		1160	7432	940	3218
34	robl	DRSC07674		6058		2843	
35	CG4714	DRSC06883		12632		3584	
36	Creld	DRSC00308		2044	3680	940	1527
37	CG6005	DRSC15945		1796	6305	870	1667
38	Ir94h	DRSC15232		14166		13837	
39	CG13255	DRSC11702		14916		5205	
40	CG30015	DRSC05241		22267		13840	
41	CG30015	DRSC07027		15936		2261	
42	CG30015	DRSC07028		2185	6181	744	2128
43	Caf1-180	DRSC17807		6699	7542	1131	1560
44	CG4701	DRSC01952		1296	6041	706	2481
45	CG31457	DRSC22935		8.13e5	7.94e5	4.58e5	1.37e5

Look-ups from the list.
Under “firefly reporter light, replicate 1”, CR43096 + CG43060 [DRSC12654] has 5015
CG4701 [DRSC01952], firefly reporter light, replicate 2: 6041
Value of CG14207 [DRSC19563] in “firefly reporter light, replicate 1”: 19494
CG7518 [DRSC16253], Renilla control light, replicate 1: 2548

The list goes on.
no.	gene	DRSC id	reporter change call, replicate 1	firefly reporter light, replicate 1	firefly reporter light, replicate 2	Renilla control light, replicate 1	Renilla control light, replicate 2
46	CG14543	DRSC14887		17190		16225	
47	Mcr	DRSC03366		9040		3783	
48	Acph-1	DRSC14103		9732		3316	
49	Alg14	DRSC19983		20572		7744	
50	jvl	DRSC13053		3913		1090	
51	jvl	DRSC15495		10898		3109	
52	mRpL32	DRSC14479		8359		3458	
53	CG15464 (retired record)	DRSC18047		23664		11509	
54	CG15464 (retired record)	DRSC22086		6.09e5	6.53e5	2.13e5	2.46e5
55	CG11608	DRSC14334		13536		4627	
56	NKCC	DRSC12140		7015		2345	
57	NKCC	DRSC12311		11288		3146	
58	CG5214	DRSC15739		21028		5158	
59	CG5214	DRSC22842		5.91e5	6.96e5	1.85e5	1.57e5
60	CG4281	DRSC18521		3872	7240	1185	2978
61	clt	DRSC04621		2490	6507	755	2378
62	CG12661	DRSC17864		17632		10187	
63	CG43861	DRSC02170		3181	7080	635	2941
64	CG43861	DRSC02308		2016	7464	557	2295
65	Sec61gamma	DRSC19570		18889		9861	
66	mdu	DRSC19860		29723		4976	
67	CG1309	DRSC08302		5299		3196	
68	Mlh1	DRSC07473		9381		3155	
69	Mst84Db	DRSC12542		20429		4498	
70	Mst84Db	DRSC12598		14758		3896	
71	cuff	DRSC06315		7970		3600	
72	Polr1A	DRSC07535		9604		3824	
73	toc	DRSC00169		21300		9432	
74	toc	DRSC00171		18064		8073	
75	toc	DRSC00842		9559		3408	
76	CR32745	DRSC17442		2369		882	
77	PpY-55A	DRSC07513		3936		1520	
78	Obp99c	DRSC16262		6432		3112	
79	CG12674	DRSC00348		1852	5270	984	2464
80	toe	DRSC09174		3050		1158	
81	toe	DRSC09783		10295		2212	
82	CG6431	DRSC02956		3400	6710	1349	3697
83	CG5968	DRSC02916		4077	5944	1178	3088
84	TwdlL	DRSC16042		2445	10231	1283	3436
85	Or9a	DRSC18692		18299		8117	
86	Coq3	DRSC03168		7000		2105	
87	CG14983	DRSC08441		5075		2363	
88	Serinc	DRSC11296		3003		823	
89	Trax	DRSC15709		4838		2192	
90	okr	DRSC00834		10320		3853	
91	Trs31	DRSC05975		15131		4725	
92	arr	DRSC07451	Wg reporter activity lowered (active)	1408		3172	
93	CG34249 (retired record)	DRSC09431		1654		1030	
